Measured values as given in PMC5397160, “Insights into the RecQ helicase mechanism revealed by the structure of the helicase domain of human RECQL5”.
Construct, isoform or probe ends are uncertain for at least one entry. The comparison behind a weaker result is the experiment's own reference, which may not be listed here. At least one verdict was read from the data and is not stated in words by the source.

Chains of the proteins cited; added tags and fusions are not shown. Residues count along the entry.
UniProt O94762, 11-609: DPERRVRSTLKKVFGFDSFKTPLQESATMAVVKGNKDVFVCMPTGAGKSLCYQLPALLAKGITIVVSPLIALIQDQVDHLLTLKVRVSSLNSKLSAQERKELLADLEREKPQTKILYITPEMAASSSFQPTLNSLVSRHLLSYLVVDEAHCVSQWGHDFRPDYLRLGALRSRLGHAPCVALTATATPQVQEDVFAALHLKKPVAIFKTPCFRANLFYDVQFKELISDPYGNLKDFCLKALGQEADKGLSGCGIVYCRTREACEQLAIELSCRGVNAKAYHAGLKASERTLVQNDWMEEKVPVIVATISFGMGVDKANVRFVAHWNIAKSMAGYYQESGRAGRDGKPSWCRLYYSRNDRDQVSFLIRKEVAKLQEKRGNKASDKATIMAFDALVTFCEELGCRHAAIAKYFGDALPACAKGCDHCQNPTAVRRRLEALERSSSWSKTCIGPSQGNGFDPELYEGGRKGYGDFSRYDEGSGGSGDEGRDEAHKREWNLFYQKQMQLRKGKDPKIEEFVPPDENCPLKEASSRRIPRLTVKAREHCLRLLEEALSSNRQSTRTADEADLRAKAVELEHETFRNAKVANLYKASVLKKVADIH

Target: RECQL5 11-609 (human) (UniProt O94762)
Test: fluorescence polarization
Conditions: FP: 10 mM HEPES pH 7.5, 150 mM NaCl, 25 C, 10 nM FITC probe, no nucleotide or Mg stated, recombinant protein, residues 11-609, label: 5' fluorescein (FITC) on RQ-1
[1] = remaining substrates: low micromolar apparent Kd

## ATCGATAGTCGGATCCTCTAGACAGCTCCATGTAGCAAGGCACTGGTAGAATTCGGCAGCGTC / GACGCTGCCGAATTCTACCAGTGCCTTG [5' overhang (RQ-1 + RQ-9)]
[1]
  binding result: binds more weakly

## ATCGATAGTCGGATCCTCTAGACAGCTCCATGTAGCAAGGCACTGGTAGAATTCGGCAGCGTC / GACGCTGCCGAATTCTACCAGTGCCTTGCTATTTTTTTTTTTTCATGGAGCTGTCTAGAGGATCCGACTATCGAT [looped duplex (RQ-1 + PQ-8)]
  binding result: binds

## ATCGATAGTCGGATCCTCTAGACAGCTCCATGTAGCAAGGCACTGGTAGAATTCGGCAGCGTC / GGAGCTGTCTAGAGGATCCGACTATCGA [3' overhang (RQ-1 + RQ-4)]
[1]
  binding result: binds more weakly
